Laboratory results published in PubChem BioAssay AID1347076 (National Center for Advancing Translational Sciences (NCATS), 2019).
Values joined by “and” are separate entries in the source; they are usually repeats but may differ in a detail not shown here. Identical values can stand only once. Hit rate of the full screen: of about 400,000 compounds, about 13,000 (3.2%) were called active. The shares of active, inactive and inconclusive entries below differ from those in the screen. Calls come from the whole dose curve; as a rule, active = well fitted cell-killing curve with a large enough effect; inconclusive = small, poorly fitted or top-dose-only effect, or effect the other way; inactive = flat fitted curve, though single readings scatter. Potencies beside an inconclusive call are fits to weak or partial responses and may not hold up.

Assay: qHTS assay for MDR1-selective chemotherapeutics: Primary screen using the drug-selected MDR subline cells KB-V1; note: nearly all actives have a fitted effect of over 60% in size
Settings: KB-V1 MDR cells viability, CellTiter-Glo, 72 h; activity change, negative = cytotoxicity: at 46.1 µM (top of the series)
Procedure, shortened: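 qHTS viability screen in drug-selected KB-V1 MDR cells: 72 h compound treatment at 37 degrees C, ATP luminescence end point.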
% is set by controls: 0 for no effect and ±100 for the full control effect; potency is the fitted concentration of half-maximal effect.

| SMILES | Potency | activity change, negative = cytotoxicity |
| --- | --- | --- |
| CCNc1ccc(Br)cc(C(=O)/C=C/c2ccc(Cl)cc2Cl)c1=O | active: 18.4 µM |  |
| Cc1c(C(=O)N(Cc2ccccc2)Cc2cccs2)cnn1-c1ccc(Cl)cc1 | inconclusive: 9.2 µM [cytotoxic, partial curve] |  |
| COc1ncnc2c1ncn2CCCNC1CCN(Cc2ccccc2)CC1 | inactive |  |
| CC(C)(C)NC(=S)NCC1CC1 | inactive |  |
| O=C(CN1CCc2ccccc2C1)Nc1cc(S(=O)(=O)N2CCOCC2)ccc1N1CCOCC1 | inconclusive: 14.6 µM [cytotoxic, partial curve] |  |
| CC(=O)n1cc([C@H]2C=C(C(=O)O)O[C@@H](OCCCCO)C2)c2ccccc21 | inconclusive: 2.91 µM [rising, full curve, poor fit] |  |
| Cc1csc(Nc2ccccc2)[n+]1-c1ccccc1 | inconclusive: 29.1 µM [cytotoxic, single point] |  |
| COCOCCn1cc(CN2CCS(=O)(=O)N(Cc3ccc(-c4ccc(F)cc4)cc3)C(CC(C)C)C2=O)nn1 (stereo not given) | inconclusive: 23.1 µM [cytotoxic, single point] |  |
| CCOC(=O)c1nnn(CC(=O)NC(=O)Nc2ccccc2F)c1C(=O)OCC | inconclusive: 16.4 µM [rising, single point] |  |
| Cc1ccccc1CN1CCNC(=O)C1CC(=O)N(C)CCC1CCOCC1 (stereo not given) | inconclusive: 25.9 µM [rising, single point] |  |
| O=c1cc(O)n(-c2ccccc2)c(=S)[nH]1 | inactive |  |
| CC1=C(CC[C@@H](C)CO)OC2CC3C4CCC5CC(O)CCC5(C)C4CC(=O)C3(C)C12 (stereo not given in full) | inconclusive: 29.1 µM [cytotoxic, single point] |  |
| O=c1c2cc([N+](=O)[O-])cc([N+](=O)[O-])c2[nH]n1-c1ccccc1 | active: 0.82 µM |  |
| Cc1ccc(S(=O)(=O)N(C)C)cc1NC(=O)C(C)OC(=O)CC1CC2CCC1C2 (stereo not given) | inconclusive: 2.31 µM [rising, partial curve, poor fit] |  |
| CCOc1ccc(S(=O)(=O)NCCC(=O)NCCOc2ccccc2OC)cc1 |  | inconclusive: -1.01% |
| S=C(NCc1ccccc1)N1CCc2ccccc2C1 | inconclusive: 18.4 µM [cytotoxic, single point] |  |
| O=C1c2ccccc2C(c2nnnn2-c2ccc3c(c2)OCCO3)N1Cc1cccc(F)c1 (stereo not given) | inconclusive: 8.2 µM [cytotoxic, partial curve] |  |
| O=C(NC(=S)Nc1ccccc1Br)C1CC1 | inconclusive: 2.91 µM [rising, full curve] |  |
| OCCC1CN(Cc2nc(-c3ccccc3)cs2)CCN1C1CCCC1 (stereo not given) | inconclusive: 9.2 µM [cytotoxic, partial curve] |  |
| CCc1cccc2c(C(O)c3c[nH]c4ccccc34)c[nH]c12 (stereo not given) | inconclusive: 25.9 µM [cytotoxic, partial curve, poor fit] |  |
| COc1ccc(C(C)=O)cc1COC(=O)CCCN1C(=O)c2ccccc2C1=O | inconclusive: 16.4 µM [rising, single point] |  |
| CN(CC(=O)Nc1ccc(F)c(F)c1F)C(=O)c1ccc(=O)[nH]c1 | inconclusive: 16.4 µM [rising, partial curve] |  |
| c1ccc(N2CCN(c3c4c(nc5ncnn35)CCC4)CC2)cc1 | active: 2.91 µM |  |
| Cc1nn(-c2ccccc2)c(C)c1NS(=O)(=O)c1ccccc1 | inconclusive: 16.4 µM [cytotoxic, single point] |  |

| SMILES | Potency | activity change, negative = cytotoxicity |
| --- | --- | --- |
| COc1ccc(C2C3=C(COC3=O)Oc3cc4c(cc32)OCO4)cc1OC (stereo not given) | inconclusive: 3.66 µM [cytotoxic, full curve, poor fit] and inconclusive: 1.16 µM [cytotoxic, full curve, poor fit] |  |
| Cc1nc(N(C)Cc2ccccc2)c2c(C)c(C)sc2n1 | inconclusive: 7.31 µM [cytotoxic, partial curve] |  |
| CN(c1ccccc1)c1cc(=O)[nH]c(=O)[nH]1 | inconclusive: 0.206 µM [rising, partial curve, poor fit] |  |
| COc1ccc(-c2nn(CC(=O)NCCc3ccccc3)c(=S)n2C)cc1 | active: 16.4 µM |  |
| COC(=O)C1N[C@@H]([C@@H](NC(=O)COc2ccccc2)C(=O)NCc2ccc(OC)cc2)SC1(C)C (stereo not given in full) | inconclusive: 20.6 µM [cytotoxic, partial curve, poor fit] |  |
| O=C1c2cccc3cccc(c23)C(=O)N1c1ccccc1Cl | inactive |  |
| Cc1ccc(C(C)C)c(Oc2cnccn2)c1 | inconclusive: 29.1 µM [rising, single point] |  |
| COc1ccc(C2c3c(n(C)c4ccccc34)C(=O)N2CC(=O)Nc2c(C)cc(C)cc2C)cc1 (stereo not given) | inactive |  |
| Cn1nc(-c2ccc(N3CCCCC3)c(NC(=O)c3ccco3)c2)c2ccccc2c1=O | inconclusive: 7.31 µM [cytotoxic, partial curve, poor fit] |  |
| CC(=O)Nc1cccc(C(=O)/C=C/c2ccc(F)cc2)c1 | inconclusive: 18.4 µM [cytotoxic, single point] |  |
| COc1ccc(CCN2C(=O)C=CC2=O)cc1OC | inconclusive: 20.6 µM [cytotoxic, single point] |  |
| COc1ccc(Br)c2c1-c1nc(NC(=O)c3ccc(F)cc3)sc1C2 | inactive |  |
| COc1ccc(N(C)S(=O)(=O)c2ccc3c(c2)CC(C)N3C(=O)C2CC2)c(OC)c1 (stereo not given) | active: 8.2 µM |  |
| O=C(CCCOc1ccc(Cl)cc1Cl)Nc1cccnc1 | active: 18.4 µM |  |
| CCOc1ccccc1CNC(=O)C(CC)n1nc(C)c2c(C)n(-c3ccccc3)nc2c1=O (stereo not given) |  | inconclusive: -7.25% |
| COc1ccc2cc(CN(Cc3cccnc3)S(=O)(=O)c3ccccc3)c(=O)[nH]c2c1 | active: 16.4 µM |  |
| CCOC(=O)c1cc(-c2ccccc2)sc1NC(=O)C(C)(C)C | inactive |  |
| c1ccc(-c2cc(-c3ccccc3)n3ncnc3n2)cc1 | inactive |  |
| O=C(Nc1ccc(Cl)cc1)c1ccc2oc(=O)n(Cc3ccccc3)c2c1 | inactive |  |
| O=C(COC(=O)c1cc(S(=O)(=O)N2CCCCC2)ccc1N1CCOCC1)c1ccccc1 | active: 20.6 µM |  |
| COCC(=O)NNC(=O)Cc1ccc(Cl)cc1 | inconclusive: 20.6 µM [rising, partial curve, poor fit] |  |
| Cc1ccc2c(c1)C(=O)OC(C(=O)Nc1ccc(C(=O)O)cc1)C2 (stereo not given) | inactive |  |
| O=C(Nc1sc2c(c1C(=O)c1ccc(Cl)cc1)CCCC2)c1cccnc1 | inconclusive: 6.51 µM [cytotoxic, partial curve, poor fit] |  |
| CCOC(=O)C(NC(=O)c1ccccc1)(Nc1nnc(C)s1)C(F)(F)F (stereo not given) | inconclusive: 10.3 µM [cytotoxic, partial curve] |  |

| SMILES | Potency | activity change, negative = cytotoxicity |
| --- | --- | --- |
| O=[N+]([O-])c1ccc(N2CCc3ccccc3C2)cc1 | inconclusive: 18.4 µM [cytotoxic, single point] |  |
| C[C@@H]1[C@H]2[C@@H](O[C@@H]3O[C@H](CO)[C@@H](O)[C@H](O)[C@H]3O)OC=C(C(=O)O)[C@H]2C[C@@H]1O | inconclusive: 1.46 µM [rising, full curve, poor fit] |  |
| COc1ccc(C(=O)CN2CCN(S(=O)(=O)c3ccc(F)cc3)CC2)cc1 | inactive |  |
| Cc1cccc(C)c1NC(=O)CSc1nc2ccccc2c(=O)[nH]1 | active: 16.4 µM |  |
| CCn1nc(C)c(CNC(=O)c2cc(COc3ccc(F)cc3Cl)on2)c1C | inconclusive: 1.84 µM [cytotoxic, partial curve, poor fit] |  |
| Cc1cccc(-n2c(=O)[nH]c3c(C(N)=O)nc(C(C)C)nc32)c1 | inconclusive: 18.4 µM [cytotoxic, single point] |  |
| Cc1cc(N2CCN(c3cccc(C(F)(F)F)c3)CC2)n2nc(C)nc2n1 | inconclusive: 6.51 µM [cytotoxic, partial curve] |  |
| O=C(Nc1nc(-c2ccccc2)cs1)C1CCCN(S(=O)(=O)c2ccccc2)C1 (stereo not given) | inconclusive: 5.8 µM [cytotoxic, partial curve] |  |
| CC(=O)Nc1ccc(OCC(O)CN2CCN(c3ccc(Cl)cc3)CC2)cc1 (stereo not given) | inactive |  |
| COc1ccccc1-n1cc(-c2ccccc2)c2c(=S)nc[nH]c21 | inconclusive: 2.91 µM [cytotoxic, partial curve, poor fit] |  |
| O=C1CC(c2ccccc2)CC(O)=C1C=Nc1ccccc1Cl (stereo not given) | inactive |  |
| CCN(CC)c1ccc(-c2sc(Nc3ccccc3)n[n+]2-c2ccc(F)cc2)cc1 | inactive |  |
| Cc1cc(C(=O)CSc2nc(N)cc(=O)[nH]2)c(C)n1Cc1ccco1 | inactive |  |
| Cc1nc2cc(-c3ccc(Cl)cc3)nn2c(C)c1CCC(=O)N1CCN(c2ccccc2)CC1 | inconclusive: 1.46 µM [rising, single point] |  |
| COc1ccc(C(=O)c2cc([N+](=O)[O-])ccc2N2CCN(C)CC2)cc1 | active: 6.51 µM |  |
| CN(C)CCOCCOc1ccccc1-c1ccccc1 | inconclusive: 29.1 µM [cytotoxic, single point] |  |
| O=C(N/N=C/C(Cl)=C/c1ccccc1)c1ccccc1F | inconclusive: 29.1 µM [rising, single point] |  |
| COc1cccc(NC(=O)Nc2c(C)n(C)n(-c3ccccc3)c2=O)c1 | inactive |  |
| Cc1cc(C(=O)CSc2nn3c(=O)c(C(C)(C)C)nnc3s2)c(C)n1C | inactive |  |
| Cn1cnnc1SCC(=O)NNC(=O)COc1ccc(Cl)cc1 | inconclusive: 23.1 µM [rising, single point] |  |
| Cc1cccc2cc(CN(Cc3ccco3)C(=O)c3cccs3)c(=O)[nH]c12 | inactive |  |
| CCN(CC)C(=O)[C@H]1C[C@H](CC(=O)NCCCN(C)C)C(=O)N2CCc3c([nH]c4cc(-c5ccco5)ccc34)[C@]12C | inactive |  |
